In test [1] the target is Vpr in pGBT9 (yeast two-hybrid fusion) (HIV-1) (UniProt P12520). Nature of the test: two-hybrid; vpr in pGBT9, rhp23 fused to the activation domain in pGAD-GH; β-galactosidase assay on cell extracts.
Test [2] deals with HA-Vpr fusion (HIV-1 Vpr) expressed from pSF173 in fission yeast (HIV-1) (UniProt P12520). In words: co-IP; fission yeast lysates, anti-HA antibody overnight at 4°C, protein A-agarose beads, washed with PBS; blots with anti-Mts2 or anti-Mts4; HA-Rhp23 with or without vpr expression.
For test [3], the target named is T1, HA-tagged Kir2.1 (control) (UniProt P63252).
T1 sequence: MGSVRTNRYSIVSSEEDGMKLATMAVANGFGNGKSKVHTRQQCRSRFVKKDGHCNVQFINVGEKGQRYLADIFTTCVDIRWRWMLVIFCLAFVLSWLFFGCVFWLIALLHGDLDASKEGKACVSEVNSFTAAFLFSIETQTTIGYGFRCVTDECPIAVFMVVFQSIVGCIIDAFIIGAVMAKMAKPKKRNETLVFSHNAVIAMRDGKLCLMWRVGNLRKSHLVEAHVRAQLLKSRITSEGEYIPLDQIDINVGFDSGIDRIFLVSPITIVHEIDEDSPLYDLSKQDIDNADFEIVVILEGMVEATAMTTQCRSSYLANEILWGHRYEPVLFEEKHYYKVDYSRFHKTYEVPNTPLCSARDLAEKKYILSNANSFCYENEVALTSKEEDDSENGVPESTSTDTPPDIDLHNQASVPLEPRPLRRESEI
Nature of the test: co-IP; HeLa cells 48 hrs after transfection, ProFound Mammalian HA Tag IP/Co-IP kit (anti-HA agarose, overnight, washed with TBST); blots with anti-S2 and anti-S5a.

The chains behind the UniProt entries cited, without tags or fusion partners.
UniProt P12520: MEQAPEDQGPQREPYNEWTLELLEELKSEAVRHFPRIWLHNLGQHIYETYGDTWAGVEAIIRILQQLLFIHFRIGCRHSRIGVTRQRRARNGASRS
UniProt O74803: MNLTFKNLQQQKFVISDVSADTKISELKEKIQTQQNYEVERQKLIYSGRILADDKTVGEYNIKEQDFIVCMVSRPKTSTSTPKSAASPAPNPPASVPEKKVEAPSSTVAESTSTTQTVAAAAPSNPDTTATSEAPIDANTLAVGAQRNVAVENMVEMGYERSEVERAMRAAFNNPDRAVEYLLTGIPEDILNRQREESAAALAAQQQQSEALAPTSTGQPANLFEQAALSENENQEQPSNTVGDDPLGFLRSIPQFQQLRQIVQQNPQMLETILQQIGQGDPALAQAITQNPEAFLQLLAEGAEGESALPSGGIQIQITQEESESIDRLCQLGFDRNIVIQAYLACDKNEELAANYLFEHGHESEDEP
UniProt P36612: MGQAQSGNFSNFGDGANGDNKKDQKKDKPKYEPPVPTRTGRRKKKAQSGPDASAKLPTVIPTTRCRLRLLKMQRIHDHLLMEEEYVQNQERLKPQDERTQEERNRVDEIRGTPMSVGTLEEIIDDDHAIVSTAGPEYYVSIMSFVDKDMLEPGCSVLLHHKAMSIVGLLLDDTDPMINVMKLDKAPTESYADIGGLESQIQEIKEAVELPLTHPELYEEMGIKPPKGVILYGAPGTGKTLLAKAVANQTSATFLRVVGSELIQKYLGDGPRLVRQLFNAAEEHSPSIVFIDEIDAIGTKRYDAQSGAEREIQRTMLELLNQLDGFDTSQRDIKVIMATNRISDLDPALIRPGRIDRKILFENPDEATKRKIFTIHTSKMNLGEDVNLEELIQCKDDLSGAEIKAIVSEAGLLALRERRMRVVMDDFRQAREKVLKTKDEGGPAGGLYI
UniProt P55036: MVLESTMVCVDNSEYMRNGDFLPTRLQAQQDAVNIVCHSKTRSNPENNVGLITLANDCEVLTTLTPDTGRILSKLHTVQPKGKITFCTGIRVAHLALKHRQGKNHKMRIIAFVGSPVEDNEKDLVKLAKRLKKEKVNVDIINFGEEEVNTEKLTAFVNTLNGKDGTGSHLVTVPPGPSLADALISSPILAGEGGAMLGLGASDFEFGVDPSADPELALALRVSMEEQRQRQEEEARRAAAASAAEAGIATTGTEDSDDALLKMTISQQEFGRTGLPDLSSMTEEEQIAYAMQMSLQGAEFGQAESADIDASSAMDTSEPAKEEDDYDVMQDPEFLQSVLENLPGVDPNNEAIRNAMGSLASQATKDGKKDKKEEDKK
UniProt Q13200: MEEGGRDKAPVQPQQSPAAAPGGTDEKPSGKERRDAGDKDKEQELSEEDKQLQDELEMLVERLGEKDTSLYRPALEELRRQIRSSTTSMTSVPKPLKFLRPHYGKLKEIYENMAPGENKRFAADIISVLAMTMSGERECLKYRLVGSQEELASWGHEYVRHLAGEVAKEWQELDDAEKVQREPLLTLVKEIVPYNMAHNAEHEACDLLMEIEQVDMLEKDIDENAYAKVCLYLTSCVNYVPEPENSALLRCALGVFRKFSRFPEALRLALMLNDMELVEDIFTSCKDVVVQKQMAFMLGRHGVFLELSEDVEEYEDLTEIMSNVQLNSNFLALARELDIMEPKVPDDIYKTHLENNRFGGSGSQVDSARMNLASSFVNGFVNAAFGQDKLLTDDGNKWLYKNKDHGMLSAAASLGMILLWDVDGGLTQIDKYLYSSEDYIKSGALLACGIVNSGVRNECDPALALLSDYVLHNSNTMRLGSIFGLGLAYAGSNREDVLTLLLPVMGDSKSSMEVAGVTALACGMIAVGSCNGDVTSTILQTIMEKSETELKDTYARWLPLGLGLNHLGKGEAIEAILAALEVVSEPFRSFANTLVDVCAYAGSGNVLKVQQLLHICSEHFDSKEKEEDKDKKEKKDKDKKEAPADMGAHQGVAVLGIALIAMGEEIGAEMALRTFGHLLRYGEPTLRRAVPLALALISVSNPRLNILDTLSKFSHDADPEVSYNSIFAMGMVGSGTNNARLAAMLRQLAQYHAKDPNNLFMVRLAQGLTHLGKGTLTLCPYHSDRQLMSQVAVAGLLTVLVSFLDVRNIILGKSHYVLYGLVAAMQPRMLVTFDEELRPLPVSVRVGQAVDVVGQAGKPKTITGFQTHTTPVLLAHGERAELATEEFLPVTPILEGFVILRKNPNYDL

The target of test [4] is GST-Vpr (HIV-1) (UniProt P12520). In words: pull-down; GST or GST-Vpr from bacterial lysates immobilized on GST-agarose beads, incubated with in vitro translated 35S-labeled Rhp23; extensive washes, SDS-PAGE, autoradiography; only the target purified.

No constants are given. Whether binding was seen depends on the method and setting. For some assays here: Binding seen in cells or lysates may run through a third protein. Some binding calls cover weakened binding; strength is not graded here. For some assays here: Sequences can lack the tags named with a protein.

As for “Rhp23 fused to the activation domain in pGAD-GH (yeast two-hybrid fusion) (from UniProt O74803 1-368)”, the binding result in test [1] is listed as “binds”.
“Mts2, subunit of the regulatory 19S complex of the fission yeast 26S proteasome (from UniProt P36612 1-448)”: in test [2], the binding entry is “binds”.
In the case of “S5a, 19S regulatory subunit of the 26S proteasome (from UniProt P55036 1-377)”, in test [3], the binding result is “no binding”.
Take “in vitro translated 35S-labeled Rhp23 (from UniProt O74803 1-368)”: the binding entry in test [4] is given as “binds”.
Take “S2, 19S regulatory subunit of the 26S proteasome (mammalian homologue of fission yeast Mts4) (from UniProt Q13200 1-908)”: the binding entry in test [3] is recorded as “no binding”.

Values taken from article PMC2894085.
